Data from PMC9100061.

The chains behind the UniProt entries cited, without tags or fusion partners. Where a name states a change or a piece, a line headed by the entry shows the natural chain unless it says otherwise.
UniProt O95831: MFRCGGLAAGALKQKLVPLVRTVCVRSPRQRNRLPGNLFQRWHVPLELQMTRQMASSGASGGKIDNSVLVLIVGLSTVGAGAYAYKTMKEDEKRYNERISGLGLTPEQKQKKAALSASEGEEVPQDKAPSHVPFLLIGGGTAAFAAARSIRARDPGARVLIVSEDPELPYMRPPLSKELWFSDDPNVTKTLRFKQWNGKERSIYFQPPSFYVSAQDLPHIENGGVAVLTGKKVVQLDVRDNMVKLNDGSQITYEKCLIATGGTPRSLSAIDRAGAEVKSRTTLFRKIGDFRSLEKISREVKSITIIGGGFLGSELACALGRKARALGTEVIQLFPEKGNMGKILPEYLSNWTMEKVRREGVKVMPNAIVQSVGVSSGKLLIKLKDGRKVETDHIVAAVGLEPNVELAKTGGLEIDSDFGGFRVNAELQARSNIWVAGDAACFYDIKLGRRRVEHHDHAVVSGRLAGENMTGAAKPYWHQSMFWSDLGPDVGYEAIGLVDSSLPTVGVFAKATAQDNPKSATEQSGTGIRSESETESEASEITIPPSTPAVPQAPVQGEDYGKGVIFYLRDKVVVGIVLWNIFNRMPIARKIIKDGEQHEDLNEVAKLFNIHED

Target: FLAG-tagged AIFM1 (UniProt O95831)
Assay: co-IP; IP with Anti-FLAG M2 Affinity Gel under native conditions from TorsinKO HeLa cells co-expressing MLF2-HA and a FLAG-tagged construct for 24 h; NET buffer (150 mM NaCl, 50 mM Tris pH 7.4, 0.5% NP-40) with 5 mM NEM; immunoblot against FLAG and HA

binding: binds
B1: myeloid leukemia factor 2 (MLF2), HA-tagged (protein, UniProt Q15773 1-248)
chain: MFRFMRDVEPEDPMFLMDPFAIHRQHMSRMLSGGFGYSPFLSITDGNMPGTRPASRRMQQAGAVSPFGMLGMSGGFMDMFGMMNDMIGNMEHMTAGGNCQTFSSSTVISYSNTGDGAPKVYQETSEMRSAPGGIRETRRTVRDSDSGLEQMSIGHHIRDRAHILQRSRNHRTGDQEERQDYINLDESEAAAFDDEWRRETSRFRQQRPLEFRRLESSGAGGRRAEGPPRLAIQGPEDSPSRQSRRYDW

No constants are given. Whether binding was seen depends on the method and setting. Binding seen in cells or lysates may run through a third protein. Binding can be weak; no strength is given. Tags and fused reporters may be left off the sequences shown.
